Several values for one entry are separate records, joined by “and”; a condition that tells them apart may be missing. Equal values may be shown once. Some of the results follow. The main result of the screen is listed elsewhere. These columns were measured beside it and carry no call. Compounds called inactive in the main read-out are mostly missing here. Potencies come from curve fits of mixed quality, noted in brackets.
Assay: Cell signaling CRE-BLA (Fsk stim)
Details: CHO CRE-bla reporter (cAMP response element driving beta-lactamase), forskolin EC10, beta-lactamase ratio; measured here: 460 nm blue channel
Summary of the method: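 qHTS titration format; CRE-bla CHO reporter; stimulus EC10 NKH 477, a water-soluble forskolin. Read: CCF4 460/530 nm ratio. Potency expressed as AC50 for activators or inhibitors.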

Row | Structure (SMILES) | AC50
1 | COc1ccc(C)cc1NC(=O)CN1CCN(c2ccccc2F)CC1 | 0.2 µM [falling, full curve, poor fit]
2 | CCOCC(=O)Nc1nnc(Cc2ccc(OC)c(OC)c2)s1 | 12.6 µM [rising, single point]
3 | c1ccc2c(NC3CC3)nc(-c3ccoc3)nc2c1 | 3.98 µM [rising, full curve, poor fit]
4 | Cn1c(=O)c(-c2cccc(Cl)c2)nc2cncnc21 | 10 µM [rising, partial curve]
5 | COc1ccc(CCNC(=O)CN2C(=O)C3(OCCCO3)c3ccccc32)cc1OC | 3.98 µM [falling, full curve]
6 | Cc1c(NC(=O)CC2CC(C)OC2=O)c(=O)n(-c2ccccc2)n1C (configuration not stated) | 1.58 µM [rising, partial curve]
7 | CC(C)c1nnc(NC(=O)C2CCN(c3nc4ccccc4s3)CC2)s1 | 5.01 µM [rising, single point]
8 | Cc1onc(-c2c(F)cccc2Cl)c1C(=O)Nc1nnc(C2CC2)s1 | 0.0251 µM [falling, full curve, poor fit]
9 | COc1ccc(-c2nc(CSCC(=O)NCc3ccc4c(c3)OCO4)c(C)o2)cc1OC | 5.01 µM [rising, partial curve]
10 | CCc1ccccc1-n1c(SCC(=O)Nc2ccc3c(c2)OCCO3)nc2[nH]ncc2c1=O | 2 µM [rising, partial curve, poor fit]
11 | COc1cc(NC(=O)c2cc(-c3cccs3)on2)cc(OC)c1OC | 1.26 µM [rising, partial curve]
12 | CCOc1ncccc1C(=O)Oc1ccc2c(c1)OCO2 | 3.98 µM [falling, partial curve, poor fit]
13 | CCOC(=O)N1CCC(N2C(=O)c3ccccc3C2Nc2cc(Cl)c(OC)cc2OC)CC1 (configuration not stated) | 10 µM [rising, partial curve]
14 | CN(C)c1ccc(Nc2nc(-c3cccnc3)cs2)cc1 | 0.00398 µM [falling, full curve]
15 | C=CCn1c(SCC(=O)NCCCC)nc2scc(-c3ccco3)c2c1=O | 0.251 µM [falling, full curve]
16 | CCC(=O)c1ccccc1OCCSc1nc(C)cc(=O)[nH]1 | 12.6 µM [rising, partial curve]
17 | COc1cc(-c2nc(S(=O)(=O)c3ccc(Cl)cc3)c(N(C)C)o2)cc(OC)c1OC | 3.16 µM [rising, partial curve]
18 | COc1ccc(C(=O)Nc2nc3ccccc3[nH]2)cc1OC | 6.31 µM [rising, partial curve]
19 | Cc1noc(C)c1-c1nc(N2CCN(C)CC2)c2ccccc2n1 | 12.6 µM [rising, partial curve]
20 | CN(c1nc2ccccc2n2c(-c3ccco3)nnc12)S(=O)(=O)c1ccccc1 | 31.6 µM [falling, single point]
21 | O=C1CC(C(=O)Nc2ncccn2)C(c2ccccc2)O1 (configuration not stated) | 10 µM [falling, partial curve]
22 | Cc1nc2cnc(N(C)C)nc2n(C[C@H]2CCCO2)c1=O | 12.6 µM [rising, partial curve]
23 | COCCN1C(=O)C(CC(=O)Nc2ccc(C(=O)O)cc2)SC1=Nc1ccccc1 (configuration not stated) | 10 µM [rising, partial curve, poor fit]

Fetched by compound from the entries so far, 2 records:
Row | Structure (SMILES) | AC50
13 | CCOC(=O)N1CCC(N2C(=O)c3ccccc3C2Nc2cc(Cl)c(OC)cc2OC)CC1 (configuration not stated) | 10 µM [rising, partial curve]
6 | Cc1c(NC(=O)CC2CC(C)OC2=O)c(=O)n(-c2ccccc2)n1C (configuration not stated) | 1.58 µM [rising, partial curve]

(listing goes on)

Row | Structure (SMILES) | AC50
24 | COc1nc(OCCNC(=O)Nc2ccccc2)nc(N(C)C)n1 | 12.6 µM [rising, single point]
25 | CC(=O)c1cccc(NC(=O)Cc2cccs2)c1 | 0.316 µM [falling, partial curve]
26 | COc1ccc(NC(=O)CSc2[nH]c(=O)cc(C)c2C#N)cc1OC | 10 µM [rising, partial curve]
27 | O=C(NCc1ccco1)c1cc2c(s1)CCCCC2 | 12.6 µM [falling, single point]
28 | Cn1c(=O)c(-c2cccs2)nc2cnc(OCc3ccccc3)nc21 | 15.8 µM [rising, partial curve]
29 | Cc1ccc(NC(=O)C2C(=O)N(CCO)C3(C)CC2c2ccccc2O3)cc1 (configuration not stated) | 0.398 µM [falling, full curve, poor fit]
30 | CCOc1ccc(NC(=O)N(C2CCCCC2)C(C)c2ccncc2)cc1 (configuration not stated) | 25.1 µM [falling, single point]
31 | CN1CCN(c2ncnc3ccc(-c4ccc5c(c4)OCO5)cc23)CC1 | 10 µM [rising, single point]
32 | O=c1[nH]c(NC2CCCCC2)nnc1Cc1ccccc1 | 10 µM [falling, partial curve]
33 | CCCCOC(=O)CSc1nnc(-c2cc(OC)c(OC)c(OC)c2)o1 | 15.8 µM [rising, single point]
34 | CC(Sc1ncc(C#N)c(N)n1)C(=O)Nc1ccccc1 (configuration not stated) | 25.1 µM [falling, single point]
35 | CCc1cc2c(=O)n(Cc3ccco3)c(SCc3c(C)noc3C)nc2s1 | 0.02 µM [falling, full curve, poor fit]
36 | c1ccc2c(c1)ccc1cc3c(ccc4ccccc43)cc12 | 6.31 µM [rising, full curve]
37 | CN(C(=O)COc1cc(=O)n(C)c2ccccc12)c1cccc(Cl)c1 | 25.1 µM [rising, single point]
38 | COCCOC(=O)C1=C(C)NC2=C(C(=O)CC(C)(C)C2)C1c1ccc2c(c1)OCO2 (configuration not stated) | 10 µM [rising, single point]
39 | O=C(C1CCCN(S(=O)(=O)c2cccs2)C1)N1CCc2ccccc2C1 (configuration not stated) | 0.0158 µM [falling, full curve, poor fit]
40 | O=C(NCc1ccccn1)Nc1cccc(NC(=O)NCc2ccccn2)c1 | 10 µM [rising, single point]
41 | c1ccc2c(-c3nc(-c4ccncc4)no3)cccc2c1 | 12.6 µM [rising, partial curve, poor fit]
42 | COC(=O)Nc1nc2ccc(C(=O)c3cccs3)cc2[nH]1 | 1.26 µM [rising, full curve] and 501 nM [rising, full curve] and 100 nM [rising, full curve]
43 | Cc1cc(C)cc(Nc2cc(C)nc3nc(C)nn23)c1 | 7.94 µM [rising, partial curve]
44 | CC1CCN(c2oc(-c3cccc4ccccc34)nc2C#N)CC1 | 12.6 µM [rising, partial curve]
45 | O=c1c2ccccc2nc(-c2ccco2)n1CCCn1ccnc1 | 25.1 µM [rising, single point]
46 | CCC1Cc2c(nc3c4c(nc(N5CCOCC5)c(C#N)c24)NC(C)=N3)O1 (configuration not stated) | 12.6 µM [rising, partial curve]

Row | Structure (SMILES) | AC50
47 | Cc1ccc(NC(=O)CSc2nc3c(c(=O)[nH]2)CCC3)cc1C | 10 µM [rising, partial curve]
48 | Cc1cc(C)c2c(CN3CCN(C/C=C/c4ccccc4)CC3)cc(=O)oc2c1 | 0.398 µM [rising, full curve, poor fit]
49 | C=CCn1c(SCC(=O)/C(C#N)=C(\C)N)nnc1C1CCCCC1 | 0.316 µM [falling, partial curve]
50 | O=C(CNCC1CCCO1)Nc1ccccc1-n1cccc1 (configuration not stated) | 0.00794 µM [falling, full curve, poor fit]
51 | COc1ccc(C2/C(=C(\O)c3ccc4c(c3)OCCO4)C(=O)C(=O)N2CCCN(C)C)c(OC)c1 (configuration not stated) | 3.98 µM [falling, partial curve]
52 | Clc1cccc(-c2nnc(SCc3nc4ccccc4[nH]3)n2Cc2ccco2)c1 | 7.94 µM [rising, partial curve]
53 | CCOCCCNc1nc2c([nH]1)c(=O)n(C)c(=O)n2C | 3.98 µM [falling, single point]
54 | CCCc1ccc(OCC(O)CN2CCN(c3ccccc3)CC2)cc1 (configuration not stated) | 12.6 µM [falling, partial curve]
55 | C=CCOc1nc2c(c(=O)n(C)c(=O)n2C)n1C | 0.398 µM [rising, partial curve, poor fit]
56 | C=C1C(=O)C=C2CN(C(=O)c3ccccc3)[C@@](Cc3ccc(OC)cc3)(C(=O)OC)[C@@H]12 | 0.316 µM [falling, full curve]
57 | CCOC(=O)N/C(N)=N/c1nc2ccccc2s1 | 0.398 µM [rising, partial curve]
58 | O=C(c1ccco1)N1CCN(C(=O)N2c3ccccc3Sc3ccccc32)CC1 | 1 µM [rising, partial curve]
59 | COc1cccc(N(CC(=O)NC(C)c2ccccc2)S(C)(=O)=O)c1 (configuration not stated) | 0.00794 µM [falling, full curve, poor fit]
60 | CN1C(=O)NC(c2ccccc2)C2=C1CN(c1cccc(C(F)(F)F)c1)C2=O (configuration not stated) | 10 µM [rising, single point]
61 | c1ccc(COn2nnc3ccccc32)c(COn2nnc3ccccc32)c1 | 12.6 µM [rising, single point]
62 | CC1(C)OC(=O)C(=C2CCCN2)C(=O)O1 | 0.501 µM [rising, full curve]
63 | COCCNC(=O)c1c(N)n(-c2cccc(C)c2)c2nc3ccccc3nc12 | 10 µM [rising, partial curve]
64 | CN(C)c1ncc2nc(-c3ccc(F)cc3)c(=O)n(CCc3ccccc3)c2n1 | 3.98 µM [rising, partial curve]
65 | COc1ccc(-n2c(SCCC#N)nnc2-c2cc(Cl)ccc2OC)cc1Cl | 5.01 µM [rising, partial curve]
66 | Cn1c(=O)c(-c2cc(F)cc(F)c2)nc2cnc(Oc3ccccc3)nc21 | 25.1 µM [rising, single point]
67 | CNC(=O)c1cc2c(=O)n3cc(C)ccc3nc2n(C(C)C)c1=N | 12.6 µM [rising, partial curve]
